Reference: patent US20090181900A1
No constants are given. Whether binding was seen depends on the method and setting. Some results given as binding are weak or reduced against the parent protein; the word gives no strength. Sequences can lack the tags named with a protein.

Protein sequences, listed by entry. Tags and fused reporters are not part of them. Lines headed by an entry give the natural chain unless they say otherwise; changes in a name come on top.
UniProt P13612: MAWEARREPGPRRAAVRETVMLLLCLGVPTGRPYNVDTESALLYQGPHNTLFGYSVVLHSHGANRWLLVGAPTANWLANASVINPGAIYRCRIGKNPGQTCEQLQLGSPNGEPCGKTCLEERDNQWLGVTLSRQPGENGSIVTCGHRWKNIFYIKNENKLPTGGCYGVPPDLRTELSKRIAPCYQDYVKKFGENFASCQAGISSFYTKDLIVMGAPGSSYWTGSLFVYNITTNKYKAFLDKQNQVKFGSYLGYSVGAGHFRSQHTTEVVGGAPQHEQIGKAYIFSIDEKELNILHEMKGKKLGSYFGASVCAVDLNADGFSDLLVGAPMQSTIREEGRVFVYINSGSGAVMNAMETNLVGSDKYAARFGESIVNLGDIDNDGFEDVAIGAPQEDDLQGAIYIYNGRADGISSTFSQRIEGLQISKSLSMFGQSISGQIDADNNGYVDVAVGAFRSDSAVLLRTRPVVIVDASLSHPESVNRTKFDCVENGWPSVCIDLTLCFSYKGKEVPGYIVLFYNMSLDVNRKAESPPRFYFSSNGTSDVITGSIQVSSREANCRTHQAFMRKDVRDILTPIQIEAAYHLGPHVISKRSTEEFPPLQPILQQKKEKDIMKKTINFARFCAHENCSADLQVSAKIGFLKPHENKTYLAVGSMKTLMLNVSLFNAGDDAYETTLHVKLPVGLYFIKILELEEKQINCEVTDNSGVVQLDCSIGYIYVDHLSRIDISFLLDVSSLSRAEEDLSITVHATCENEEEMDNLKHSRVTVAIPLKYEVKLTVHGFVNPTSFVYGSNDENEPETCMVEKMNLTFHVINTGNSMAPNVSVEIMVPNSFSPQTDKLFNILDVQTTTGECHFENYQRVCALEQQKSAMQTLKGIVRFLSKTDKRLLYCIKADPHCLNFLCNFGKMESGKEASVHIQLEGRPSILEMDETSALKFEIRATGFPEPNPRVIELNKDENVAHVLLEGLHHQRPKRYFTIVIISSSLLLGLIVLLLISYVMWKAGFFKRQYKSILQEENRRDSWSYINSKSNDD
UniProt Q00651: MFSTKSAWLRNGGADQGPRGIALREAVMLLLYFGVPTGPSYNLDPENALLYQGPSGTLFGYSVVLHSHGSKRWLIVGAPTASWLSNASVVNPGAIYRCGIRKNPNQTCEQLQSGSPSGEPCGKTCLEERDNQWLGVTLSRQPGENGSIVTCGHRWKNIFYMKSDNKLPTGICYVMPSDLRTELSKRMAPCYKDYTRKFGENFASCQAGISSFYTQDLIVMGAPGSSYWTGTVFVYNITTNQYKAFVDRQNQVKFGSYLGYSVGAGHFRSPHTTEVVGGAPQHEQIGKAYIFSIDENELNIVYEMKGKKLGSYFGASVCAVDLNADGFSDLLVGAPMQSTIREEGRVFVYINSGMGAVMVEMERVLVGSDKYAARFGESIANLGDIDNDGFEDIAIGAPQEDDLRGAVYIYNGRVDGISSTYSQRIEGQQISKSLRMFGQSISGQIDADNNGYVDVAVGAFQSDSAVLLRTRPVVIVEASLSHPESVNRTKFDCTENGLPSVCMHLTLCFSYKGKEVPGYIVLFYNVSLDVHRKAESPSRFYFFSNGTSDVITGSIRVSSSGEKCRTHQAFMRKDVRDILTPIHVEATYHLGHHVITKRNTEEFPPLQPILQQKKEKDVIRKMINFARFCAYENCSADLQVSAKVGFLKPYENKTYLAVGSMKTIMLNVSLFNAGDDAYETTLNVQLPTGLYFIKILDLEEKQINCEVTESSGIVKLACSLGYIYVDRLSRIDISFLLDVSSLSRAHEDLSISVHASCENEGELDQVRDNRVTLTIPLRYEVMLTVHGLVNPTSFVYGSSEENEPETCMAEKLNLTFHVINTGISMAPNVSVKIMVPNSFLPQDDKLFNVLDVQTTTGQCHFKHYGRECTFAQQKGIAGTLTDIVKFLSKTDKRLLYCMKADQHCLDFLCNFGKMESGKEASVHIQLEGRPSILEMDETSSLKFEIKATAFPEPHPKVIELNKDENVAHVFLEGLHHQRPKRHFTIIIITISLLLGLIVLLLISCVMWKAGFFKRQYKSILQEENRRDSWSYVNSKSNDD

Legend:
[1] = molecular target: T1, soluble recombinant mouse MAdCAM-1-Fc (mouse) (UniProt Q61826); assay: cell adhesion assay, activated cells adhered to coated slides before the peptide was added
T1 sequence (looked up): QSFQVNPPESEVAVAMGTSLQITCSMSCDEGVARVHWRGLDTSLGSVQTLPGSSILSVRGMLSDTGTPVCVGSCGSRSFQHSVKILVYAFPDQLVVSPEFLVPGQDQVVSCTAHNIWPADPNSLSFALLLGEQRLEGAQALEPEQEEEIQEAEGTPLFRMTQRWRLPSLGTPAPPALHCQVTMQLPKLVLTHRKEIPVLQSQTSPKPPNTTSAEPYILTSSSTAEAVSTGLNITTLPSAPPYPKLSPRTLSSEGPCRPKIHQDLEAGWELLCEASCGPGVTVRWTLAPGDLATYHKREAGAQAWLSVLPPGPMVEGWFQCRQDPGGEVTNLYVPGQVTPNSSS

[2] = molecular target: T1, soluble recombinant mouse MAdCAM-1-Fc (mouse); assay: cell adhesion assay, Mn++ or PMA-activated H9 cells on slides coated with MAdCAM-1-Fc
[3] = molecular target: T2, soluble human VCAM-1-Fc chimera (human) (UniProt P19320); assay: cell adhesion assay, activated TK-1 cells on slides coated with VCAM-1-Fc
T2 sequence (looked up): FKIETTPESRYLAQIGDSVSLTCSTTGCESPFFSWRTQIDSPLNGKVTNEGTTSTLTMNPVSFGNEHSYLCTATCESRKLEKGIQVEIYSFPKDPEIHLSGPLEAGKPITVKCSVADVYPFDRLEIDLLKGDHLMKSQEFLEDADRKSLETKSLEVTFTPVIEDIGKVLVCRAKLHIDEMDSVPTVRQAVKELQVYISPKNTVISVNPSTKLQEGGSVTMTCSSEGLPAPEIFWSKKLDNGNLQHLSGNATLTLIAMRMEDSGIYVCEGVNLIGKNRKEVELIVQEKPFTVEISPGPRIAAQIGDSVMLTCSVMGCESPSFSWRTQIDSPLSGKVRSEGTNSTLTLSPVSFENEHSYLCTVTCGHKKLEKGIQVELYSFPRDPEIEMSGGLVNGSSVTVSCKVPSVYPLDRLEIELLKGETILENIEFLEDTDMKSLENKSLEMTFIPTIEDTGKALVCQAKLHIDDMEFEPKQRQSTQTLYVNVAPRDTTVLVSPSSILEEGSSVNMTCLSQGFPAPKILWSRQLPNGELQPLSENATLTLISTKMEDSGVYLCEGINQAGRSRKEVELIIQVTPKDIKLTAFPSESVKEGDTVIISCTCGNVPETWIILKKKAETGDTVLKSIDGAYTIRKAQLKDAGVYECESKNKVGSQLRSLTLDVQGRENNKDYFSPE

[4] = molecular target: T2, soluble human VCAM-1-Fc chimera (human); assay: cell adhesion assay, activated cells adhered to coated slides before the peptide was added
[5] = molecular target: T1, soluble recombinant mouse MAdCAM-1-Fc (mouse); assay: cell adhesion assay, activated TK-1 cells on slides coated with MAdCAM-1-Fc

Measured: binding

integrin α4β7 on human H9 T lymphoma cells (from UniProt P13612 34-1032; P26010 20-798) (receptor)
binds: [1] | [2]

integrin α4β7 on mouse TK-1 T lymphoma cells (from UniProt Q00651 41-1039; P26011 20-806) (receptor)
not listed: [2]
binds: all other assays above
